Measurements as given in publication PMC10482247.
The exact form of at least one protein or probe is not confirmed. At least one result comes from cells or an extract, where the contact may be indirect. Tags and fusion partners may be left off the protein sequences shown.

Biological target: T1, HA-SlSEP3 (UniProt A0ABM1GS83)
T1 sequence (looked up, limits assumed): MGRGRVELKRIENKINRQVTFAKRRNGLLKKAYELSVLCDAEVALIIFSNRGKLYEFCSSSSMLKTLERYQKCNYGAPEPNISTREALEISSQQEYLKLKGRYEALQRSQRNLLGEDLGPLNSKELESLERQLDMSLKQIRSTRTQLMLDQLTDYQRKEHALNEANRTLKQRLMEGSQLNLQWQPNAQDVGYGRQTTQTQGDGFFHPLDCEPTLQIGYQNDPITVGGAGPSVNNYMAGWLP
Assay: EMSA
Settings: Beyotime chemiluminescent EMSA kit GS009; protein stored in 1x PBS; binding buffer, pH and temperature not given; protein in a lysate after overexpression

ATGATGTTTACTAATTGG (double strand) [wild-type lc CArG probe (F/R)]
binding result: binds
